Measurements published in article PMC6377607.
Results are given in words; binding and its absence hold for the method and conditions named. For some of these results: Binding seen in cells or lysates may run through a third protein. Some binding calls cover weakened binding; strength is not graded here. Where a sequence is shown, tags or fusion partners need not be part of it.

T1: Phytoalexin deficient4 (PAD4), yeast two-hybrid fusion (Arabidopsis) (UniProt Q9S745)
T1 sequence: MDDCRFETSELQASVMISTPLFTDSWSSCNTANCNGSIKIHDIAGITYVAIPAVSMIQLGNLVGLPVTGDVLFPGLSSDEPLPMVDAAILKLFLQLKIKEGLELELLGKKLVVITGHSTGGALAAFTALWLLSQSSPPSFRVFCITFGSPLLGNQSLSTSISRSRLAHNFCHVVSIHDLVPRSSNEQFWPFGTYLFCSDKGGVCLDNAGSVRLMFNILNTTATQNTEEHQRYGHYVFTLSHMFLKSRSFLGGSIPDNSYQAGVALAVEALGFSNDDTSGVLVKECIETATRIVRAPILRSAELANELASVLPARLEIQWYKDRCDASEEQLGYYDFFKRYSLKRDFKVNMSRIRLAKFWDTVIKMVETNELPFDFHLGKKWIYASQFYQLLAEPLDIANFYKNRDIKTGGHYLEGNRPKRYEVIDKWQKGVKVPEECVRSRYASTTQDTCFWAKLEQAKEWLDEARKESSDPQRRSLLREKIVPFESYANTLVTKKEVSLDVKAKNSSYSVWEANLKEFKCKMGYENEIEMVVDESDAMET

T2: PAD4-YFP (Arabidopsis) (UniProt Q9S745)
T2 sequence: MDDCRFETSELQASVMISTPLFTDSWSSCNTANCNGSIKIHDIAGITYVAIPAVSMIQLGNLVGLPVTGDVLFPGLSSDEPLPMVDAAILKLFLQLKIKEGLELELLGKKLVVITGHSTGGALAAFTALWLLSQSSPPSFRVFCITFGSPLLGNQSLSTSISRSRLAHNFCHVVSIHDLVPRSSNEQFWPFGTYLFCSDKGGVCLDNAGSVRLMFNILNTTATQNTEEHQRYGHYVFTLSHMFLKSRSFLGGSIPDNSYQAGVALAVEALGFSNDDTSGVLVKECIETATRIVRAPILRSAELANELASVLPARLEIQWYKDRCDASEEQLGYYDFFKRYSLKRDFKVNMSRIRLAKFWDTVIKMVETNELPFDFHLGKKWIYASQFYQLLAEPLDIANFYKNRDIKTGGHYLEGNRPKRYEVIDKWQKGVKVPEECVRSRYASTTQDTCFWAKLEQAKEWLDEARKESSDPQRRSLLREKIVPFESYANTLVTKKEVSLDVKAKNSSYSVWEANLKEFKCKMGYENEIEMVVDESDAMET


Experiments:
[1] = molecular target: T1, Phytoalexin deficient4 (PAD4), yeast two-hybrid fusion (Arabidopsis); experiment: two-hybrid; Matchmaker system (Clontech), yeast strain AH109, fusions in pGADT7 and pGBKT7; reporter activation on plates lacking leucine, tryptophan, histidine and adenine, growth recorded after 2-5 days at 30 °C
[2] = molecular target: T2, PAD4-YFP (Arabidopsis); experiment: co-IP; transient expression in eds1-2 pad4-1 sag101-3 Arabidopsis protoplasts (16 h); IP with GFP-TrapA beads for 2 h at 4 °C in 50 mM Tris pH 7.5, 150 mM NaCl, 10% glycerol, 2 mM EDTA, 5 mM DTT, 0.1% Triton; immunoblot
[3] = molecular target: T2, PAD4-YFP (Arabidopsis); experiment: co-IP; IPs of transiently expressed proteins (host not stated for Supplementary Fig. 5B, C); GFP-TrapA beads for 2 h at 4 °C in 50 mM Tris pH 7.5, 150 mM NaCl, 10% glycerol, 2 mM EDTA, 5 mM DTT, 0.1% Triton; immunoblot

| binding [1] | binding [2] | binding [3] | Binder |
| --- | --- | --- | --- |
| binds | – | – | Enhanced disease susceptibility1 (EDS1), wild type, yeast two-hybrid fusion (protein, UniProt Q9XF23 1-623) MAFEALTGINGDLITRSWSASKQAYLTERYHKEEAGAVVIFAFQPSFSEKDFFDPDNKSSFGEIKLNRVQFPCMRKIGKGDVATVNEAFLKNLEAVIDPRTSFQASVEMAVRSRKQIVFTGHSSGGATAILATVWYLEKYFIRNPNVYLEPRCVTFGAPLVGDSIFSHALGREKWSRFFVNFVTRFDIVPRITLARKASVEETLPHVLAQLDPRNSSVQESEQRITEFYTSVMRDTSTVANQAVCELTGSAEAILETLSSFLELSPYRPAGTFVFSTEKRLVAVNNSDAILQMLFYTCQASDEQEWSLIPFRSIRDHHSYEELVQSMGMKLFNHLDGENSIESSLNDLGVSTRGRQYVQAALEEEKKRVENQKKIIQVIQQERFLKKLAWIEDEYKPKCQAHKNGYYDSFKVSNEENDFKANVKRAELAGVFDEVLGLLKKCQLPDEFEGDIDWIKLATRYRRLVEPLDIANYHRHLKNEDTGPYMKRGRPTRYIYAQRGYEHHILKPNGMIAEDVFWNKVNGLNLGLQLEEIQETLKNSGSECGSCFWAEVEELKGKPYEEVEVRVKTLEGMLREWITAGEVDEKEIFLEGSTFRKWWITLPKNHKSHSPLRDYMMDEITDT |
| binds | – | – | EDS1^R493A, yeast two-hybrid fusion (protein, UniProt Q9XF23 1-623) MAFEALTGINGDLITRSWSASKQAYLTERYHKEEAGAVVIFAFQPSFSEKDFFDPDNKSSFGEIKLNRVQFPCMRKIGKGDVATVNEAFLKNLEAVIDPRTSFQASVEMAVRSRKQIVFTGHSSGGATAILATVWYLEKYFIRNPNVYLEPRCVTFGAPLVGDSIFSHALGREKWSRFFVNFVTRFDIVPRITLARKASVEETLPHVLAQLDPRNSSVQESEQRITEFYTSVMRDTSTVANQAVCELTGSAEAILETLSSFLELSPYRPAGTFVFSTEKRLVAVNNSDAILQMLFYTCQASDEQEWSLIPFRSIRDHHSYEELVQSMGMKLFNHLDGENSIESSLNDLGVSTRGRQYVQAALEEEKKRVENQKKIIQVIQQERFLKKLAWIEDEYKPKCQAHKNGYYDSFKVSNEENDFKANVKRAELAGVFDEVLGLLKKCQLPDEFEGDIDWIKLATRYRRLVEPLDIANYHRHLKNEDTGPYMKRGRPTAYIYAQRGYEHHILKPNGMIAEDVFWNKVNGLNLGLQLEEIQETLKNSGSECGSCFWAEVEELKGKPYEEVEVRVKTLEGMLREWITAGEVDEKEIFLEGSTFRKWWITLPKNHKSHSPLRDYMMDEITDT |
| – | binds | – | wild-type EDS1-FLAG (protein, UniProt Q9XF23 1-623) MAFEALTGINGDLITRSWSASKQAYLTERYHKEEAGAVVIFAFQPSFSEKDFFDPDNKSSFGEIKLNRVQFPCMRKIGKGDVATVNEAFLKNLEAVIDPRTSFQASVEMAVRSRKQIVFTGHSSGGATAILATVWYLEKYFIRNPNVYLEPRCVTFGAPLVGDSIFSHALGREKWSRFFVNFVTRFDIVPRITLARKASVEETLPHVLAQLDPRNSSVQESEQRITEFYTSVMRDTSTVANQAVCELTGSAEAILETLSSFLELSPYRPAGTFVFSTEKRLVAVNNSDAILQMLFYTCQASDEQEWSLIPFRSIRDHHSYEELVQSMGMKLFNHLDGENSIESSLNDLGVSTRGRQYVQAALEEEKKRVENQKKIIQVIQQERFLKKLAWIEDEYKPKCQAHKNGYYDSFKVSNEENDFKANVKRAELAGVFDEVLGLLKKCQLPDEFEGDIDWIKLATRYRRLVEPLDIANYHRHLKNEDTGPYMKRGRPTRYIYAQRGYEHHILKPNGMIAEDVFWNKVNGLNLGLQLEEIQETLKNSGSECGSCFWAEVEELKGKPYEEVEVRVKTLEGMLREWITAGEVDEKEIFLEGSTFRKWWITLPKNHKSHSPLRDYMMDEITDT |
| – | – | binds | FLAG-tagged EDS1^R493E (protein, UniProt Q9XF23 1-623) MAFEALTGINGDLITRSWSASKQAYLTERYHKEEAGAVVIFAFQPSFSEKDFFDPDNKSSFGEIKLNRVQFPCMRKIGKGDVATVNEAFLKNLEAVIDPRTSFQASVEMAVRSRKQIVFTGHSSGGATAILATVWYLEKYFIRNPNVYLEPRCVTFGAPLVGDSIFSHALGREKWSRFFVNFVTRFDIVPRITLARKASVEETLPHVLAQLDPRNSSVQESEQRITEFYTSVMRDTSTVANQAVCELTGSAEAILETLSSFLELSPYRPAGTFVFSTEKRLVAVNNSDAILQMLFYTCQASDEQEWSLIPFRSIRDHHSYEELVQSMGMKLFNHLDGENSIESSLNDLGVSTRGRQYVQAALEEEKKRVENQKKIIQVIQQERFLKKLAWIEDEYKPKCQAHKNGYYDSFKVSNEENDFKANVKRAELAGVFDEVLGLLKKCQLPDEFEGDIDWIKLATRYRRLVEPLDIANYHRHLKNEDTGPYMKRGRPTEYIYAQRGYEHHILKPNGMIAEDVFWNKVNGLNLGLQLEEIQETLKNSGSECGSCFWAEVEELKGKPYEEVEVRVKTLEGMLREWITAGEVDEKEIFLEGSTFRKWWITLPKNHKSHSPLRDYMMDEITDT |
| – | – | binds | FLAG-tagged EDS1^R493K (protein, UniProt Q9XF23 1-623) MAFEALTGINGDLITRSWSASKQAYLTERYHKEEAGAVVIFAFQPSFSEKDFFDPDNKSSFGEIKLNRVQFPCMRKIGKGDVATVNEAFLKNLEAVIDPRTSFQASVEMAVRSRKQIVFTGHSSGGATAILATVWYLEKYFIRNPNVYLEPRCVTFGAPLVGDSIFSHALGREKWSRFFVNFVTRFDIVPRITLARKASVEETLPHVLAQLDPRNSSVQESEQRITEFYTSVMRDTSTVANQAVCELTGSAEAILETLSSFLELSPYRPAGTFVFSTEKRLVAVNNSDAILQMLFYTCQASDEQEWSLIPFRSIRDHHSYEELVQSMGMKLFNHLDGENSIESSLNDLGVSTRGRQYVQAALEEEKKRVENQKKIIQVIQQERFLKKLAWIEDEYKPKCQAHKNGYYDSFKVSNEENDFKANVKRAELAGVFDEVLGLLKKCQLPDEFEGDIDWIKLATRYRRLVEPLDIANYHRHLKNEDTGPYMKRGRPTKYIYAQRGYEHHILKPNGMIAEDVFWNKVNGLNLGLQLEEIQETLKNSGSECGSCFWAEVEELKGKPYEEVEVRVKTLEGMLREWITAGEVDEKEIFLEGSTFRKWWITLPKNHKSHSPLRDYMMDEITDT |
| – | binds | binds | EDS1^R493A fused to a FLAG tag (protein, UniProt Q9XF23 1-623) MAFEALTGINGDLITRSWSASKQAYLTERYHKEEAGAVVIFAFQPSFSEKDFFDPDNKSSFGEIKLNRVQFPCMRKIGKGDVATVNEAFLKNLEAVIDPRTSFQASVEMAVRSRKQIVFTGHSSGGATAILATVWYLEKYFIRNPNVYLEPRCVTFGAPLVGDSIFSHALGREKWSRFFVNFVTRFDIVPRITLARKASVEETLPHVLAQLDPRNSSVQESEQRITEFYTSVMRDTSTVANQAVCELTGSAEAILETLSSFLELSPYRPAGTFVFSTEKRLVAVNNSDAILQMLFYTCQASDEQEWSLIPFRSIRDHHSYEELVQSMGMKLFNHLDGENSIESSLNDLGVSTRGRQYVQAALEEEKKRVENQKKIIQVIQQERFLKKLAWIEDEYKPKCQAHKNGYYDSFKVSNEENDFKANVKRAELAGVFDEVLGLLKKCQLPDEFEGDIDWIKLATRYRRLVEPLDIANYHRHLKNEDTGPYMKRGRPTAYIYAQRGYEHHILKPNGMIAEDVFWNKVNGLNLGLQLEEIQETLKNSGSECGSCFWAEVEELKGKPYEEVEVRVKTLEGMLREWITAGEVDEKEIFLEGSTFRKWWITLPKNHKSHSPLRDYMMDEITDT |
